Laboratory results published in patent US6905818.
Results are given in words; binding and its absence hold for the method and conditions named. Some entries that bind do so weakly or less than the wild type.

The chains behind the UniProt entries cited, without tags or fusion partners. Where a name states a change or a piece, a line headed by the entry shows the natural chain unless it says otherwise.
UniProt P04386: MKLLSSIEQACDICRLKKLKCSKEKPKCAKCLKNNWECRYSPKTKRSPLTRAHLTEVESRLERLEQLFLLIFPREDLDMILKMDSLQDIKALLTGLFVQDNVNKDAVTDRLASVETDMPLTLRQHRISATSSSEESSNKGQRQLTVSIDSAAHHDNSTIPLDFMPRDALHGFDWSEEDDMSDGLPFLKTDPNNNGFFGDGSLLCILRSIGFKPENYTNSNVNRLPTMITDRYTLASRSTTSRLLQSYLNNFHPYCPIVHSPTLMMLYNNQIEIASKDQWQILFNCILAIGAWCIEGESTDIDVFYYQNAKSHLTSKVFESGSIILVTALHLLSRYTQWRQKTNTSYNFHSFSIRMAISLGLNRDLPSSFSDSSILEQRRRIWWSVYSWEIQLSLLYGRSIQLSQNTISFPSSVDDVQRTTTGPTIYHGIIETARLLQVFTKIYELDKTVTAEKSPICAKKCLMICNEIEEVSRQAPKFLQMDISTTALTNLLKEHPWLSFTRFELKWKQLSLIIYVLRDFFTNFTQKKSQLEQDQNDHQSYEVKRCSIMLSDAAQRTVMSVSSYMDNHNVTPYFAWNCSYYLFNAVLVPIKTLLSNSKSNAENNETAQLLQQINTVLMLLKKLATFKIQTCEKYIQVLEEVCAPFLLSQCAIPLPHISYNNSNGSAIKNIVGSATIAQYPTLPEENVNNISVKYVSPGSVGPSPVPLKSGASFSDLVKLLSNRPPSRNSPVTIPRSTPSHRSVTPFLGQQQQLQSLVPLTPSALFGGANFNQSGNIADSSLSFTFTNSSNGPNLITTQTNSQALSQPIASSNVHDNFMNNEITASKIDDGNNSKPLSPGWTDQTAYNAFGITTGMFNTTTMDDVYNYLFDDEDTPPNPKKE
UniProt P53762: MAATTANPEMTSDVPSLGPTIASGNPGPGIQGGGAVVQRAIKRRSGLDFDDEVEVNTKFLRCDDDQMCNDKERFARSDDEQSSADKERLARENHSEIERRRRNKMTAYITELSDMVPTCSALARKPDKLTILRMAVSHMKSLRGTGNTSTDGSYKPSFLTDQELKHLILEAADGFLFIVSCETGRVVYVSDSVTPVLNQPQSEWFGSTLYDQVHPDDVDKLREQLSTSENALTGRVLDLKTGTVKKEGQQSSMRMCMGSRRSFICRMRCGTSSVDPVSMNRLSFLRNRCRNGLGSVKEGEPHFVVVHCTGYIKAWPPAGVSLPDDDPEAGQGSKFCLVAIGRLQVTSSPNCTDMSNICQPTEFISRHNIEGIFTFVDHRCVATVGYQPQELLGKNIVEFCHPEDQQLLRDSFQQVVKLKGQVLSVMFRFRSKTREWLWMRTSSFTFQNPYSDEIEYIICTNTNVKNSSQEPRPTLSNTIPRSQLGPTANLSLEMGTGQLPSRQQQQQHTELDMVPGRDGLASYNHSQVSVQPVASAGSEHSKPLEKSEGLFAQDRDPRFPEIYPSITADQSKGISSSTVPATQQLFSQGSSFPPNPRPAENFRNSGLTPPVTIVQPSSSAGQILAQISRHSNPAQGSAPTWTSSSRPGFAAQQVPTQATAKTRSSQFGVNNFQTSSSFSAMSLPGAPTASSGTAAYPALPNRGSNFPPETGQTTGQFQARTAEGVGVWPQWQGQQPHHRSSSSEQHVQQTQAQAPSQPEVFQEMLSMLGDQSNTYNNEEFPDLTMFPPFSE
UniProt P0A7C2: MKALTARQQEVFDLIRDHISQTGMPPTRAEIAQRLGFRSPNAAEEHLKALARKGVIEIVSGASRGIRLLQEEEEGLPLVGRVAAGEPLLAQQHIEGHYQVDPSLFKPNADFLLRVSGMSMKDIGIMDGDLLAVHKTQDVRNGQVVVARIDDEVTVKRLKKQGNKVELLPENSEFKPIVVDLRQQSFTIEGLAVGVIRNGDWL

Key:
[1] = target: T1, GAL4ad-ARNT fusion protein (yeast) (UniProt P04386+P53762); experiment: yeast two-hybrid, GFPuv reporter
[2] = target: T1, GAL4ad-ARNT fusion protein (yeast); experiment: yeast two-hybrid, β-gal assay on spotted membranes
[3] = target: T1, GAL4ad-ARNT fusion protein (yeast); experiment: yeast two-hybrid, automated interaction mating, β-Gal assay
[4] = target: T1, GAL4ad-ARNT fusion protein (yeast); experiment: yeast two-hybrid, HIS3 and lacZ reporters with counterselection
[5] = target: T1, GAL4ad-ARNT fusion protein (yeast); experiment: yeast two-hybrid, β-gal assay on spotted membranes (FIG. 11 legend)
[6] = target: T1, GAL4ad-ARNT fusion protein (yeast); experiment: yeast two-hybrid positive clones 06L22 and 08N24 of the defined interaction library, members identified by hybridisation

Measured: binding

LexA-SIM1 fusion protein (from UniProt P0A7C2 1-202; Q61045 1-366)
binds: all assays above
